Data reported in US20230064307A1, “Pharmaceutical composition to destabilize abnormal methylation enzymes and use thereof” (priority 2021, published 2023).
At least one compound was matched to its structure with a doubt left.

System: MAT
Assay: Helping role of DHI to boost the activity of DI, in vitro (Km, Vmax)
Type: biochemical
Conditions: PA, 6.7 mM

O=C(O)Cc1ccccc1 [PA, phenylacetate]
Km: 18.5 µM
Vmax (% of control): 90 % of control
